Measurements from PubChem BioAssay AID1671190 (National Center for Advancing Translational Sciences (NCATS), 2021).
Where “and” joins values, the source holds several entries; their conditions need not be identical. Equal entries are not always repeated. Out of some 580,000 compounds screened, about 6,100 (1.1%) were called active. The inconclusive results got no clear call from the source; some entries with a clear call stand among them for comparison. The call rests on the fitted dose curve; in most records, active means well fitted inhibition curve with a large enough effect; inconclusive means small, poorly fitted or top-dose-only effect, or another doubt; inactive means no such curve, though single readings can be large or run the other way. A potency beside an inconclusive call is a rough fit, not a confirmed value.

The chains behind the UniProt entries cited, without tags or fusion partners. Where a name states a change or a piece, a line headed by the entry shows the natural chain unless it says otherwise.
UniProt P18054: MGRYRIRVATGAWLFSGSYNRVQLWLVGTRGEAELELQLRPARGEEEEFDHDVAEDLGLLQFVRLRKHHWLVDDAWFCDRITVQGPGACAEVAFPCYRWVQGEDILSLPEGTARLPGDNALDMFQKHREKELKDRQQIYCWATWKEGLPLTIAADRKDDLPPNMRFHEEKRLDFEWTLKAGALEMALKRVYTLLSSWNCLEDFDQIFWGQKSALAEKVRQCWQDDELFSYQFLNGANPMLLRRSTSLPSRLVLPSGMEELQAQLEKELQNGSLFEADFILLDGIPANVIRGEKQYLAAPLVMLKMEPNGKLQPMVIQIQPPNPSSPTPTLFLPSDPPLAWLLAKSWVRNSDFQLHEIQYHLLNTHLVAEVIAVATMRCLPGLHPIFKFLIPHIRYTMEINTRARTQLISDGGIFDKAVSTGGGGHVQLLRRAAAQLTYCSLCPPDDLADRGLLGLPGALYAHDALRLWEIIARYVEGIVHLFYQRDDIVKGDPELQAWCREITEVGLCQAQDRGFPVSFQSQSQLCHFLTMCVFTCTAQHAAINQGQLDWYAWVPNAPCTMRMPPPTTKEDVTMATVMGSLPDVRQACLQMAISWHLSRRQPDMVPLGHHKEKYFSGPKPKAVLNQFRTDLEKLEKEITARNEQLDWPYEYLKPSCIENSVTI

target: Polyunsaturated fatty acid lipoxygenase ALOX12 (Homo sapiens) (UniProt P18054); experiment: Primary qHTS assay for inhibitors of human arachidonate 12S-lipoxygenase (ALOX12): Round 2; conditions: purified 12hLO, xylenol orange hydroperoxide absorbance; activity change, negative = inhibition: at 108 µM (top of the series) unless noted
Method in brief: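 Purified human 12hLO (150 nM final) in 25 mM Hepes, 0.01% Triton X-100, pH 7.0 was preincubated 15 min at room temperature with compound. Then 40 uM arachidonic acid was added, 30 min. Hydroperoxide was read by Fe-XO absorbance ratio 573/405 nm.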
On the % scale 0 is the no-effect control and ±100 the full control effect; potency means the concentration at half of the fitted maximal effect.

Structure (SMILES)	Potency	activity change, negative = inhibition
CN1CCC2(CC1)Oc1ccccc1C1CC(c3ccc4c(c3)OCCO4)=NN12 (centres undefined)	inactive	–
CCN(CC)S(=O)(=O)c1ccc(C)c(NC(=S)N(c2ccccc2)C(C)C)c1	inconclusive: 79.4 µM [inhibitor, single point]	–
CCn1c(/C=C/c2cc[n+](C)cc2)nc2ccccc21	active: 11.2 µM	–
Cc1ccc(S(=O)(=O)N2CC3(O)CN(C(=O)OC(C)C)N(C(=O)OC(C)C)CC3(OC(=O)NCC3CCCCC3)C2)cc1 (centres undefined)	inconclusive: 35.5 µM [inhibitor, partial curve]	–
C#CCOCCOCCOCCNc1nc(N2CCOCC2)nc(N2CCN(C(=O)Cn3cc(CCCCN)nn3)CC2)n1	inconclusive: 35.5 µM [inhibitor, partial curve, poor fit]	–
CCOC(=O)CSc1nnc(-c2ccccc2OC)o1	inactive	–
Cc1nn(Cc2ccccc2)c2c1C(c1ccc(Cl)cc1)C(C#N)=C(N)O2 (centres undefined)	inconclusive: 56.2 µM [inhibitor, partial curve, poor fit]	–
CCNC(=S)NCc1ccc2[nH]c(C)cc2c1	inconclusive: 44.7 µM [inhibitor, partial curve, poor fit]	–
C/C=C/C=C/C(=O)OCC(=O)c1ccc(Br)s1	inconclusive: 44.7 µM [inhibitor, partial curve, poor fit]	–
O=C(CCCNC(=O)c1ccc(Cl)cc1)NCc1cccc(C(F)(F)F)c1	inconclusive: 89.1 µM [inhibitor, single point]	–
O=C1NC[C@H](CCCCN2C[C@H](Cc3ccccc3)N(CCC3CCCCC3)C(=O)C2=O)N(CCC2CCCCC2)C1=O	inconclusive: 10 µM [inhibitor, partial curve, poor fit]	–
O=C(COc1ccc(Br)cc1)NC(=S)Nc1ccccc1N1CCOCC1	inconclusive: 28.2 µM [inhibitor, partial curve]	–
Oc1ccc(C2=NNC(=NCc3ccc4c(c3)OCO4)SC2)c(O)c1	inconclusive: 50.1 µM [inhibitor, partial curve, poor fit]	–
Cc1cc(C(=O)Nc2ncn[nH]2)ccc1[N+](=O)[O-]	inconclusive: 1.78 µM [inhibitor, full curve, poor fit]	–
O=C1c2ccccc2C(=O)C1C1=Nc2ccccc2NC(c2ccccc2)C1 (centres undefined)	inconclusive: 0.316 µM [inhibitor, full curve, poor fit]	–
COc1cc(S(=O)(=O)n2nnc3ccccc32)c(OC)cc1Cl	inconclusive: 2 µM [inhibitor, full curve, poor fit]	–
CCOc1cc(=O)n2c(c1C(=O)NCc1ccccc1Cl)CCCCC2	inconclusive: 3.55 µM [inhibitor, full curve, poor fit]	–
COc1ccc(S(=O)(=O)N2CCN(C(=O)c3sccc3-c3ccccc3)CC2)cc1	inactive	–
CCc1ccc2oc(=O)cc(CN3CCN(c4ccccc4)CC3)c2c1	inconclusive: 5.62 µM [inhibitor, full curve, poor fit]	–
N=C1/C(=C\c2coc3ccccc3c2=O)C(=O)N=C2SC=CN12	active: 20 µM	–
OC(Cc1cccc(Br)c1)c1ncc(-c2cccc(C(F)(F)F)c2)[nH]1 (centres undefined)	inconclusive: 44.7 µM [inhibitor, partial curve, poor fit]	–
OC(CN1CC=C(/C=C/c2ccc(Br)cc2)CC1)c1ccccc1 (centres undefined)	inconclusive: 35.5 µM [inhibitor, partial curve]	–

A section taken from the entries so far, as a working copy:
Structure (SMILES)	Potency	activity change, negative = inhibition
O=C1c2ccccc2C(=O)C1C1=Nc2ccccc2NC(c2ccccc2)C1 (centres undefined)	inconclusive: 0.316 µM [inhibitor, full curve, poor fit]	–
COc1cc(S(=O)(=O)n2nnc3ccccc32)c(OC)cc1Cl	inconclusive: 2 µM [inhibitor, full curve, poor fit]	–

More structures follow:

Structure (SMILES)	Potency	activity change, negative = inhibition
Cc1ccc(S(=O)(=O)N2CCN(C(=O)CN3CCN(c4ccc(O)cc4)CC3)CC2)cc1	inconclusive: 31.6 µM [inhibitor, single point]	–
Cc1ccc2nc(Nc3ccc(C)c(F)c3)c3nncn3c2c1	inactive	–
Cc1ccc(OCCOCCNC(C)C)c(Br)c1	inconclusive: 3.98 µM [inhibitor, partial curve]	–
CCCN(CCC)C(=S)NC(=O)c1ccc(-c2ccccc2)cc1	inconclusive: 31.6 µM [inhibitor, partial curve, poor fit]	–
COc1ccccc1CN1C(=O)CN(C2CCCCCC2)C(=O)C1c1ccc(F)cc1 (centres undefined)	–	inconclusive: -42.1% [inhibitor]
Cn1c(=O)c2c(O)c(C=NCc3ccccc3)c(=O)n(C)c2n(C)c1=O	inconclusive: 89.1 µM [inhibitor, single point]	–
O=C(CSc1nnc(-c2cccc(F)c2)o1)NC1CCCC1	inactive	–
O=C(CS(=O)Cc1ccco1)NCC=CCOc1cc(CN2CCCCC2)ccn1 (centres undefined)	inconclusive: 27.3 µM [inhibitor, partial curve, poor fit]	–
Cn1nc(-c2ccccc2)cc1NS(=O)(=O)c1ccccc1	inconclusive: 39.8 µM [inhibitor, single point]	–
COc1ccc2[nH]cc(C(C(=O)O)N3CCC(C)CC3)c2c1 (centres undefined)	inactive	–
CCn1nc(C)c(CCN(C)C(=O)Nc2cc(OC)c(OC)c(OC)c2)c1C	inactive	–
O=C(Nc1ccccc1F)c1ccc(CSc2ncccn2)cc1	inconclusive: 50.1 µM [inhibitor, partial curve, poor fit]	–
O=C(NNc1cc(C(F)(F)F)nc2ccccc12)Nc1cccc(Cl)c1	inconclusive: 28.2 µM [inhibitor, partial curve, poor fit]	–
COc1ccc(CCN2C(=S)N(C)C(=O)C2CC(=O)Nc2ccc(OC)cc2)cc1 (centres undefined)	inactive	–
Cc1nc(-c2ccc(NC(=O)C3CCCCC3)cc2)cs1	inactive	–
NS(=O)(=O)c1ccc2ccccc2c1	inactive	–
O=C(CCc1ccccc1)Nc1nc2nc(-c3ccccc3)cc(=O)n2[nH]1	inactive	–
Cn1c(O)c(N=NC(=O)CNC(=O)/C=C/c2ccccc2)c2ccccc21	inactive	–
COc1cc(-n2ccnc2SC)c(Cl)cc1Cl	inactive	–
O=C(COCc1cc(-c2cccs2)on1)N1CCN(c2cccc(Cl)c2)CC1	inconclusive: 141 µM [inhibitor, single point]	–
COC(=O)[C@@]1(Sc2ccc(C)cc2)CC(=O)N[C@@H]1c1ccco1	active: 39.8 µM	–
COc1cccc2sc3cc(NCc4ccc(C)o4)ccc3c(=O)c12	inconclusive: 44.7 µM [inhibitor, partial curve, poor fit]	–

Structure (SMILES)	Potency	activity change, negative = inhibition
O=C(N/C(=C/c1ccccc1)C(=O)N1CCCCCC1)c1ccccc1	inconclusive: 112 µM [inhibitor, partial curve, poor fit]	–
C=CCc1c(C)nc(-c2ccccc2)nc1N/N=C/c1ccccc1	inactive	–
COc1cccc(CC(=O)N2CCCC3(C2)NC(=O)N(Cc2cc(C)ccc2C)C3=O)c1 (centres undefined)	inconclusive: 22.4 µM [inhibitor, full curve]	–
Cc1cccc(C(=O)N2CCC(=O)N(C(COCc3cccc(Cl)c3)Cc3ccccc3)CC2)c1 (centres undefined)	inconclusive: 89.1 µM [inhibitor, single point]	–
Cc1ccc(NC(=O)C2CCCCC2C(=O)O)cc1Cl (centres undefined)	inconclusive: 112 µM [inhibitor, partial curve, poor fit]	–
Cn1c(-c2sc3cc(C(F)(F)F)cnc3c2-c2cccnc2)n[nH]c1=S	inconclusive: 31.6 µM [inhibitor, single point]	–
Cc1cc(C)n2nc(SCC(N)=O)nc2n1	inconclusive: 50.1 µM [inhibitor, partial curve, poor fit]	–
COc1ccc(C2C(C(=O)c3sc(C)nc3C)=C(O)C(=O)N2CCN(C)C)cc1 (centres undefined)	inconclusive: 2.51 µM [inhibitor, full curve, poor fit]	–
N#Cc1c(NCCCO)nc(-c2ccco2)c2c1CCCC2	inconclusive: 39.8 µM [inhibitor, partial curve] and inconclusive: 25.1 µM [inhibitor, partial curve, poor fit]	–
Cc1ccc(Cl)cc1NC(=O)Cn1c(=O)n(Cc2ccccc2)c(=O)c2oc3ccccc3c21	inactive	–
O=[N+]([O-])c1ccc(C2=Nn3c(Cn4nnc5ccccc54)nnc3SC2)cc1	inactive	–
CCn1cc2c(n1)-c1c(oc(C(=O)Nc3cccc(C)c3C)c1C)CC2	inconclusive: 63.1 µM [inhibitor, partial curve, poor fit]	–
COC(=O)/C=C1\SC(=NC(=O)c2cccc(Cl)c2)NC1=O	inconclusive: 44.7 µM [inhibitor, partial curve, poor fit]	–
Cc1nn(C)c(C)c1Nc1ccc(S(=O)(=O)NC(C)C)cc1[N+](=O)[O-]	inconclusive: 100 µM [inhibitor, single point]	–
CCc1ccc2c(c1)-c1ccccc1S(=O)(=O)N2CC(=O)N1CCOCC1	inconclusive: 2.82 µM [inhibitor, full curve, poor fit]	–
CCc1ccc(NC(=S)Nc2cc(C(=O)O)ccc2N2CC3CC(C2)c2cccc(=O)n2C3)cc1 (centres undefined)	inconclusive: 44.7 µM [inhibitor, partial curve, poor fit]	–
Cc1ccccc1CSCCNC(=O)CSCc1ccc([N+](=O)[O-])cc1	inconclusive: 44.7 µM [inhibitor, partial curve, poor fit]	–
Cc1ccc(S(=O)(=O)N2[C@@H](c3ccccc3)C(C(=O)O)=CC[C@H]2c2ccc(Cl)c(Cl)c2)cc1	inconclusive: 44.7 µM [inhibitor, partial curve, poor fit]	–
N#Cc1c(C(F)(F)F)cc(-c2cccs2)nc1SCC(=O)Nc1ccccc1F	inconclusive: 56.2 µM [inhibitor, partial curve, poor fit]	–
CCOC(=O)c1sc(NC(=S)NC(=O)CC(C)C)cc1C	inconclusive: 31.6 µM [inhibitor, single point]	–
